Data as given in article PMC10599278.
No constants are given. Whether binding was seen depends on the method and setting. In cells and extracts the contact can be indirect. Some entries that bind do so weakly or less than the wild type.

The chains behind the UniProt entries cited, without tags or fusion partners.
UniProt O60260: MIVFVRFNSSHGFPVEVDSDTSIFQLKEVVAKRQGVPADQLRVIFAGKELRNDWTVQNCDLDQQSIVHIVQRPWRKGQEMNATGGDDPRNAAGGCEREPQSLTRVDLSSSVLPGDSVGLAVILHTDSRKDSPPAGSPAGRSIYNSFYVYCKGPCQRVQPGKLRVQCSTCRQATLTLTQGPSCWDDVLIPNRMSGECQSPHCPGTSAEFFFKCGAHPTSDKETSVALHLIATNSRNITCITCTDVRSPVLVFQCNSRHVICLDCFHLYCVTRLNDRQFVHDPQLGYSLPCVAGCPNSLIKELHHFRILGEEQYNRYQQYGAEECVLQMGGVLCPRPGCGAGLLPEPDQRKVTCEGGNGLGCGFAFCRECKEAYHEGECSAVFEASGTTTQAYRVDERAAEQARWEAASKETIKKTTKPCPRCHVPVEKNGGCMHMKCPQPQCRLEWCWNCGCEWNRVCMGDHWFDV
UniProt O00425: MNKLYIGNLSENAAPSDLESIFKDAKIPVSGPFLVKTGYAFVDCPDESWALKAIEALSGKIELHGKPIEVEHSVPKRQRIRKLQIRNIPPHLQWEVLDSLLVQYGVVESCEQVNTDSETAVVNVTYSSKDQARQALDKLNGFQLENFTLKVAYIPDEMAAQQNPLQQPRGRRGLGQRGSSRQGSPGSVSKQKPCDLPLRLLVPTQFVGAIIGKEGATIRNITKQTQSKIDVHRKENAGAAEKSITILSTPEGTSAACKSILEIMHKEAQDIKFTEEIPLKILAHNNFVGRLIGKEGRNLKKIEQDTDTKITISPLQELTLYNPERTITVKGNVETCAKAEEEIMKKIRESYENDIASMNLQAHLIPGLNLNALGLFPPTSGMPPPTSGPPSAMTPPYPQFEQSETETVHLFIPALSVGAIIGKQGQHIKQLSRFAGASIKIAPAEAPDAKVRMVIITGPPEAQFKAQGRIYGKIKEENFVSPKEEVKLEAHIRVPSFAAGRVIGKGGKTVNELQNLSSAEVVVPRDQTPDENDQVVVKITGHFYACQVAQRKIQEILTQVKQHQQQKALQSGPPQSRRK

Columns and labels:
[1] = biological target: Flag-Parkin (UniProt O60260); assay: co-IP; HeLa cells co-overexpressing GFP-IGF2BP3 and Flag-Parkin (wild type or mutant), treated with SAHA (2.5 μM, 12 h); pulldown by FLAG, IGF2BP3 measured by blot
[2] = biological target: Flag-Parkin (UniProt O60260); assay: co-IP; HEK293 cells cotransfected with Flag-Parkin and GFP-IGF2BP3; IP and reverse IP; lysates in IP buffer with antibodies overnight at 4°C, washed three times, immunoblot
[3] = biological target: GFP-IGF2BP3 (human) (UniProt O00425); assay: as above

GFP-IGF2BP3 (from UniProt O00425 1-579)
binding [1]: binds
binding [2]: binds

Flag-Parkin (from UniProt O60260 1-465) (enzyme)
binding [3]: binds
